PubChem BioAssay AID652243 | Drosophila RNAi Screening Center – 2013
Test: 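Fly regulators of androgen-dependent reporter output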 (primary screen). Cells: Drosophila S2R+ cells. Reagent: long dsRNA against Drosophila genes. Timing: 72 h (48 h, then 24 h hormone). Treatment: synthetic androgen R1881 at 10 nM for 24 h. Measurement: 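Per-well raw luminescence of the androgen-driven firefly reporter and of the Renilla control, two replicates each, without normalisation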. Scale: firefly reporter light: higher = more light from androgen-responsive reporter; Renilla control light: higher = more constitutive control signal (cell number, transfection). Call rule: 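Hit when the log firefly-to-Renilla ratio dropped or increased by a fixed fold versus the mean of GFP or LacZ controls across duplicate plates; lowering cut given as 1.5 and as 3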. Calls: active = hit: reporter lowered or raised; inactive = no hit.
The screen tested about 24,000 reagents; this is an unselected part of those that have a named target and a result. Over the whole deposit, 246 (1%) got an active call. 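Plates not normalised; calls are printed but the firefly/Renilla ratio behind them is not deposited; fold cut for lowering reported inconsistently.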 The raw values are shown without normalisation. The numbers tell different reagents against one gene apart. A plus sign joins genes that one reagent is predicted to hit. Not given: the amount of reagent.

| gene | dsRNA no. | firefly reporter light, replicate 1 | firefly reporter light, replicate 2 | Renilla control light, replicate 1 | Renilla control light, replicate 2 | Call |
| --- | --- | --- | --- | --- | --- | --- |
| Acp76A | 1 | 3.61e5 | 2.19e5 | 2.44e6 | 2.13e6 | inactive |
| Acp76A | 2 | 1.79e6 | 1.18e6 | 1.43e6 | 1.43e6 | inactive |
| Acp76A | 3 | 9.87e5 | 8.61e5 | 2.16e6 | 1.87e6 | inactive |
| CG9541 | 1 | 1.58e5 | 1.77e5 | 1.96e6 | 1.64e6 | inactive |
| CG9541 | 2 | – | – | – | – | inactive |
| CG9541 | 3 | – | – | – | – | inactive |
| Arfip | 1 | 42774 | 67543 | 4.38e5 | 5.11e5 | inactive |
| Arfip | 2 | 3.79e5 | 2.81e5 | 9.75e5 | 5.30e5 | inactive |
| CG14422 | 1 | 3.44e5 | 3.36e5 | 4.28e6 | 3.74e6 | inactive |
| CG14422 | 2 | 1.21e6 | 1.87e6 | 9.91e5 | 1.09e6 | inactive |
| Vha14-2 | 1 | 58624 | 58720 | 2.01e6 | 1.26e6 | inactive |
| tor | 1 | 2.83e5 | 3.60e5 | 2.22e6 | 1.38e6 | inactive |
| tor | 2 | – | – | – | – | inactive |
| tor | 3 | – | – | – | – | inactive |
| Argl + CG9515 | 1 | 8.31e5 | 1.20e6 | 1.87e6 | 3.02e6 | inactive |
| Argl + CG9515 | 2 | 3.38e5 | 2.00e5 | 2.55e6 | 2.20e6 | inactive |
| koko + Vti1b | 1 | 1.34e5 | 72953 | 1.04e6 | 7.05e5 | inactive |
| koko + Vti1b | 2 | 66094 | 1.09e5 | 1.05e6 | 1.36e6 | inactive |
| CG4238 | 1 | 93132 | 1.15e5 | 7.98e5 | 9.12e5 | inactive |
| L (retired record) | 1 | 30946 | 46146 | 9.18e5 | 9.18e5 | inactive |
| L (retired record) | 2 | 2.80e5 | 3.19e5 | 3.09e5 | 2.53e5 | inactive |
| CG6276 | 1 | 47603 | 50896 | 5.22e5 | 4.57e5 | inactive |
| CG6276 | 2 | 5.28e5 | 3.94e5 | 1.69e6 | 1.04e6 | inactive |
| Tsp42Ea | 1 | 2.98e5 | 3.53e5 | 1.52e6 | 1.36e6 | inactive |
| Tsp42Ea | 2 | 2.92e5 | 2.71e5 | 1.85e6 | 1.28e6 | inactive |
| intr | 1 | 70569 | 1.25e5 | 4.53e5 | 7.84e5 | inactive |
| Socs44A | 1 | 3.56e5 | 2.81e5 | 2.11e6 | 1.85e6 | inactive |
| Rpp30 | 1 | 8.30e5 | 6.53e5 | 4.93e6 | 2.41e6 | inactive |
| CG31848 | 1 | 1.90e5 | 2.42e5 | 4.99e5 | 5.24e5 | inactive |
| CG15255 | 1 | 1.23e5 | 1.62e5 | 1.60e6 | 1.94e6 | inactive |
| CG15255 | 2 | 3.30e5 | 4.30e5 | 8.21e5 | 1.14e6 | inactive |
| MCU | 1 | 2.17e5 | 1.66e5 | 2.81e6 | 2.57e6 | inactive |
| CG31523 | 1 | 1.88e5 | 2.32e5 | 1.70e5 | 1.83e5 | inactive |
| CG31523 | 2 | 8.47e5 | 8.62e5 | 1.59e6 | 1.39e6 | inactive |
| CG31523 | 3 | 3.02e5 | 2.63e5 | 5.43e5 | 6.26e5 | inactive |
| su(sable) | 1 | 1.22e5 | 1.51e5 | 3.19e6 | 3.28e6 | inactive |
| Scm | 1 | 1.92e5 | 2.02e5 | 3.22e6 | 3.53e6 | inactive |
| tef | 1 | 7.83e5 | 5.76e5 | 7.85e5 | 6.38e5 | inactive |
| tef | 2 | 6.30e5 | 6.53e5 | 2.75e6 | 2.25e6 | inactive |
| tef | 3 | 3.69e5 | 3.30e5 | 8.34e5 | 4.07e5 | inactive |
| mRpL55 | 1 | 2.09e5 | 1.17e5 | 2.55e6 | 2.49e6 | inactive |
| CG18234 | 1 | 2.54e5 | 2.60e5 | 2.40e6 | 2.64e6 | inactive |
| CG34309 | 1 | 91608 | 1.16e5 | 1.80e6 | 1.74e6 | inactive |
| CG8388 | 1 | 51911 | 53451 | 9.51e5 | 9.51e5 | inactive |
| Madm | 1 | 60988 | 98682 | 1.77e6 | 2.00e6 | inactive |
| Madm | 2 | 3.33e5 | 5.11e5 | 7.08e5 | 7.86e5 | inactive |
| Madm | 3 | – | – | – | – | inactive |
| CG13078 | 1 | 1.32e5 | 1.08e5 | 1.46e6 | 9.07e5 | inactive |
| etaTry | 1 | 3.50e5 | 1.42e5 | 1.41e6 | 1.04e6 | inactive |
| etaTry | 2 | 6.43e5 | 5.36e5 | 1.50e6 | 1.29e6 | inactive |
| Tdg | 1 | 8.92e5 | 6.01e5 | 1.34e6 | 5.40e5 | inactive |
| Tdg | 2 | 1.87e5 | 2.73e5 | 3.41e6 | 1.88e6 | inactive |
| Tdg | 3 | 7.91e5 | 5.84e5 | 1.85e6 | 2.07e6 | inactive |
| Doc2 | 1 | 7.45e5 | 7.00e5 | 1.88e6 | 1.85e6 | inactive |
| Doc2 | 2 | 4.16e5 | 3.87e5 | 5.43e5 | 5.87e5 | inactive |
| CG15535 | 1 | 3.22e5 | 2.86e5 | 2.41e6 | 3.45e6 | inactive |
| Obp83cd | 1 | 71286 | 48842 | 1.14e6 | 8.59e5 | inactive |
| betaNACtes3 | 1 | 7.08e5 | 5.18e5 | 3.67e6 | 3.01e6 | inactive |
